Experimental data: PubChem BioAssay AID1347423 (Functional Genomics Laboratory (NCATS/FGL), 2020)
Screen size: about 52,000 sequences; about 210 (0.4%) were called active.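 How the source made its calls: active means gene whose silencing raises cell survival under the drug, median off-target-corrected z-score across its silencing RNAs 2 or more; inactive means the rest.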 Some of the results follow.

Assay: Resistance to Poly (ADP-Ribose) Polymerase inhibitor: Gene Identification via Genome-wide siRNA Screen
Conditions: mouse BRCA2 R2336H ES cells, olaparib, CellTiter-Glo viability; stronger effect = higher value
Summary of the method: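 Genome-wide siRNA screen (3 siRNAs/gene, 20 nM) in mouse ES cells carrying hypomorphic BRCA2 R2336H; olaparib 500 nM added 48 h post-transfection, CellTiter-Glo viability 72 h later. Normalized to plate-median negative control; MAD z-scores, gene median, seed-adjusted.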

Sequence | z-score
GCUCUGGAACAAUUCCUGCTT against Cstl1 | inactive: 0.946
GGGACUUCAAUCACAUCAATT against Rpl9 | inactive: -3.07
GGAUCAAAGCCGUUCUUUUTT against Foxq1 | inactive: 1.83
GGACAAAAGUGAUGUUAAATT against Gabrb2 | inactive: -0.629
GCAAGACAUUUUGAGAAGATT against 5033406L14Rik | inactive: -0.554
GGCGCAAUGCUCAUGUGAATT against Gzmc | inactive: -0.0426
GGCUUGAACACAAGAAAGCTT against Golph4 | inactive: 0.284
GGCAUAAAGUUGUUUACAGTT against 3110006P09Rik | active: 3.24
AGACUCUCUCUUGCACUAGTT against Retnla | inactive: -0.0408
GGCCUUUAUUGACUCCAAGTT against Syn3 | inactive: 0.0662
GGUCUUUCCAGAACAAAAATT against Rpa2 | inactive: -3.24
CGAACACUCGUUAAAGAAATT against Krt1-23 | inactive: 0.184
CCCAUGCACAUCAUGAGAATT against 4931429L15Rik | inactive: 0.161
CCCACUACGUCAUACCACUTT against Olfr605 | inactive: 0.406
CCGAUUCUGAGAGUAACAATT against Alx4 | inactive: 0.138
GGAUCAAUUGGCACUAGACTT against 2210018M03Rik | inactive: -0.959
CCCACUAUGAUCCACCUAGTT against Hnrph2 | inactive: -0.05
GCUACACGAAGAGGAACUUTT against Prph1 | inactive: -0.296
GGAAAAAUGGUCUGUAAAATT against Adck2 | inactive: -1.07
GGUUCAUGUCAUCUUUAACTT against Calr | inactive: -0.87
GGCUUUCAUAUUCUGGAAUTT against Gabrb1 | inactive: 0.417
GGAACUUGGAAUUUAGUUGTT against Pla2g4b | inactive: 0.501
GGAAUCGGAGUAGAAUCCGTT against Tcfl5 | inactive: 1.01
UUGUCCUCACCUGUUUGUATT against Olfr748 | inactive: -1.41
GGGUUGAUUGACAGGUAAATT against H2-Q10 | inactive: -0.71
GGGUAUUCAUGAUGUCUUUTT against Kctd6 | inactive: 1.24

5 entries from above, tab-delimited.
Sequence	z-score
GGAUCAAUUGGCACUAGACTT against 2210018M03Rik	inactive: -0.959
GGUUCAUGUCAUCUUUAACTT against Calr	inactive: -0.87
GGAACUUGGAAUUUAGUUGTT against Pla2g4b	inactive: 0.501
GGAAUCGGAGUAGAAUCCGTT against Tcfl5	inactive: 1.01
GGGUUGAUUGACAGGUAAATT against H2-Q10	inactive: -0.71

Remaining list, next part:

Sequence | z-score
CCAUGUGGUGAGGACUUCATT against Pkp4 | inactive: 0.581
GGCUUAUCAUAUGAAGACATT against Aplp2 | inactive: 1.33
GGCAUCUGAUUUAAGUCCUTT against 9130019P20Rik | inactive: 0.483
GCAGUGAAGUCCAAGUUAGTT against Pold3 | inactive: -2.67
GGUGACACACUAGUAGACUTT against 2610207F23Rik | inactive: 0.58
GGCUAAGGCUCAACUAUUGTT against BC034068 | inactive: -1.5
GGAAGAACAAAGAAAGAAGTT against E230015L20Rik | inactive: 1.75
GCCCGAGUUAGAGCAGUUATT against AI842396 | inactive: -1.12
GGAGGUGAAGUAUUUAGGUTT against Ccm2 | inactive: 0.03
GGAUAAAUGUGCAUCUUAGTT against Aasdhppt | inactive: -0.113
GGAGGAAAUGAUGAUUUUCTT against Kbtbd2 | inactive: 0.686
GCAUGCAUGCUAUUGUUUUTT against 4931431C16Rik | inactive: 0.447
CCACCUUAACUGUUGCUUUTT against Mmp2 | inactive: 0.557
GCAGUUAACUACGUUGCAATT against Zfp265 | inactive: -1.8
CCAGAGUUUUAUAACGGAATT against Olfr1229 | inactive: 1.15
GCUUCACUUCUACCCUAGATT against Il18bp | inactive: -1.5
GCUAUUAUUGUACGUGCAATT against Emr1 | inactive: 1.17
GCGAAUGAUUGCUUUCAAUTT against Inhbb | inactive: -0.308
GCUCAUUGCACUAAAAGACTT against Tnnt1 | inactive: -0.497
CGAGUGGCUUUUAAAAGGUTT against 2410193C02Rik | inactive: -0.156
GGAACUGAUGAUGGACCAGTT against Slc4a1 | inactive: -0.192
GCUAUGCAAAUGGUGUCAATT against Fcnb | inactive: 1.47
GGAGAUUAUCACAACUAUUTT against 1200013B08Rik | inactive: -0.638
GGAGUUUCGGGAGUUCAACTT against Jmjd2c | inactive: -0.411
CCAUCACUAGUGAUCAUUATT against D930018N13 | inactive: -0.778
GCGAGGUAUUUUCUUAGUATT against Yes | inactive: 0.421

Sequence | z-score
GGAACAAGAAGACUGUGAATT against Pcnt2 | inactive: -0.532
GGUUGCUGUUUUGAUGACATT against Tff1 | inactive: -0.322
GGCUUUUUUCUGUCCCAAUTT against Clcn6 | inactive: -1.76
GCAUCCACACGGUUAAUCUTT against Tmeff2 | inactive: 0.309
GCAGAAAUUAACAAGUCUCTT against Kif2c | inactive: 0.837
GGCAGAUUUGGGUAAAAUUTT against Eif2s3y | inactive: -3.57
GCGAACCCUAAGUAAGAAGTT against 2610101N10Rik | inactive: 1.54
GGGAUAUGAAUGGAUAUUCTT against Ptk9 | inactive: 0.0904
GGAUCUCAUGGAGGAGAAUTT against D5Ertd593e | inactive: 0.251
GGGUUUAUAAAACUGAAGUTT against Cav2 | inactive: 0.337
GGAUGUUCUCAAACUACAATT against Aof1 | inactive: -0.56
CCAUUGCUAUCAACACUAATT against Alox5 | inactive: 0.864
GGCCAGAAUAAGUUAAAUGTT against 2610300B10Rik | inactive: -1.65
GCUAUCUUGGUGGAUCUAGTT against Tubb5 | inactive: -2.06
GGUUGUCUUUCAUCGACUCTT against Fbxo5 | inactive: 0.654
GCUAAAGCGGAAACCUAAGTT against Whsc2 | inactive: 0.244
CCUGUCACAGAUGUAUGUGTT against Rnf149 | inactive: 0.676
GCUGGGCUACAAUACAUAUTT against Fgf3 | inactive: -0.696
GGACACCACGGAGUAUUUUTT against Mgat3 | inactive: -0.197
CGGCUAAAUGCAAGUAAAGTT against Rgma | inactive: -1.72
GGAUUUGGAUUUGGAUUUUTT against Dsipi | inactive: -0.439
GGGACUUCGCUAUGCAGUGTT against AW125391 | inactive: 1.99
GCAUCUAGUGACUGUCAAUTT against Sbp | inactive: -0.27
GGCAAACUCUUCCGAUGCUTT against 0610030H11Rik | inactive: 0.217
GGCAACACCAUCACCGAGATT against Ndnl2 | inactive: 0.0835
GGUGAGGUUAUUUCAAUACTT against 0610010F05Rik | inactive: -0.271

Sequence | z-score
GGAGUCUACCAUGUGAUCUTT against 2410001H17Rik | inactive: -1.79
GGGUUUUUCAAGAUAAACCTT against Nudt2 | inactive: -0.0764
GGAAUCUGCUGAGGUUUAUTT against Cidea | inactive: 0.313
GGACAUGACCUUAUUUGGATT against F2rl3 | inactive: -0.311
CUUACCACCCUGAGUUUCATT against Olfr1066 | inactive: -0.625
GGUCUACGCGCUCUAUGAATT against Gpr150 | inactive: -0.59
GGAGGUUUUUUUGUUUUGUTT against Serpinb13 | inactive: 0.331
GCAACUAUACUGGACAAUUTT against Olfr328 | inactive: -1.64
GGUGAUGUGGGUCUUGUGATT against Leng4 | inactive: -1.45
GUUCGUGCGGGACAUGAUCTT against Rpl36 | inactive: -3.11
GGUUUGUUUUUGUUCGUUUTT against Pscdbp | inactive: 0.518
CCACAUACUCUAAUGAAGUTT against Casp1 | inactive: -0.154
GCUUCAUAUUGCUAGGAAATT against Chrd | inactive: -0.0253
GCAGAUGCGCUUGGAACUUTT against Pde4b | inactive: 2.25
GCGACUGGGAGAGAUAAGATT against A130022J15Rik | inactive: 1.03
GGGAGGGUGUGCAAAAGUUTT against Arf4l | inactive: -0.928
CCUUGGCAGGUAUAGUGUUTT against 1200016C12Rik | inactive: -0.753
GGAAGGAUGAUUUUCAGAUTT against Mcf2 | inactive: 0.49
CCUUAUACGAAUGCCAUUCTT against Eed | inactive: 0.678
GGAUUCGAGCAGUUAGUGATT against Ikbkg | inactive: -0.302
GCGUAUUGGGCAGAUCAAATT against Slit1 | inactive: 0.0897
GGUGACAUAUUUGAAGUGGTT against Dmwd | inactive: -0.372
GGUCGUUCAGAAGCACCAGTT against 2410004H02Rik | inactive: -0.0483
CCGUCAAUCUUUAUACCACTT against Frzb | inactive: -0.326
GGCGUAUUUGUCAUUUCUUTT against AV340375 | inactive: -1.16
GACCCUGUCCUACAUGUUATT against 2900027G03Rik | inactive: 0.787
